# In PubChem BioAssay AID504834 (National Center for Advancing Translational Sciences (NCATS), 2011):
# About 22,000 (6.9%) of roughly 320,000 compounds were called active. This list was built around the results that the source calls inconclusive (neither active nor inactive); the mix of calls is not that of the screen. Calls come from the whole dose curve; as a rule, active = well fitted inhibition curve with a large enough effect; inconclusive = small, poorly fitted or top-dose-only effect, or another doubt; inactive = no such curve, though single readings can be large or run the other way. Potencies beside an inconclusive call are fits to weak or partial responses and may not hold up.
# Experiment: Primary qHTS for delayed death inhibitors of the malarial parasite plastid, 96 hour incubation
# Conditions: P. falciparum luciferase reporter growth; series mostly up to 28.7 µM
# Procedure, shortened: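 Plates of compound plus infected erythrocytes (2% hematocrit, 0.05% parasitemia final) incubate 96 hours, 37 C, 5% CO2. Detection reagent added; reduced luminescence from the parasites' luciferase reporter flags inhibition.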
# Potency is the fitted concentration of half-maximal effect.
row,SMILES,Potency
1,COc1cc(OC)cc(-c2c(-c3cccs3)c3cc(-c4ccc5c(c4)OCO5)ccc3n2C)c1,inactive
2,COc1ccc(NC(=S)N2CCN(Cc3ccco3)CC2)c(OC)c1,"inconclusive: 13.1 µM [inhibitor, partial curve]"
3,S=c1[nH]nc(-c2ccc(Cl)cc2Cl)n1-c1ccccc1,"inconclusive: 2.08 µM [inhibitor, single point]"
4,Cc1ccc(NS(=O)(=O)c2ccc(C(=O)N3CCN(S(=O)(=O)c4ccccc4)CC3)cc2)cc1,"inconclusive: 11.7 µM [inhibitor, partial curve]"
5,Cc1ccc(C)c(NCCC#N)c1,inactive
6,Cc1c(C(=O)Nc2ccc(Oc3ccccc3)cc2)sc2nc3n(c(=O)c12)CCC3,active: 16.5 µM
7,CSc1ccc(C(=O)C2CCCN(S(=O)(=O)N(C)C)C2)cc1 (stereo not drawn),inactive
8,COc1ccc(C)cc1N(C(=O)c1ccccc1)c1nc2ccccc2s1,active: 13.1 µM
9,CCCCc1nc2cc(C(=O)NC(C)c3cnn(C)c3)ccc2o1 (stereo not drawn),inactive
10,O=C(CSc1nc(-c2ccco2)cc(C(F)(F)F)n1)NCCCn1ccnc1,"inconclusive: 13.1 µM [inhibitor, single point]"
11,COc1ccccc1-c1cc(C(=O)N2CCCc3ccccc32)no1,"inconclusive: 9.28 µM [inhibitor, partial curve, poor fit]"
12,COc1cnc(SCC(=O)O)[nH]c1=O,inactive
13,CCOC(=O)N1CCC2(CC1)C(C#N)=C(N)Oc1c2c(C)nn1-c1cccc(Cl)c1,inactive
14,CC(=O)OCC1=C(C(=O)O)N2C(=O)C(NC(=O)Cc3ccccc3)C2SC1 (stereo not drawn),"inconclusive: 12 µM [inhibitor, partial curve, poor fit]"
15,COc1ccc(NC(=S)N(CCN(C)C)C(C)c2ccco2)cc1 (stereo not drawn),"inconclusive: 10.4 µM [inhibitor, single point]"
16,CCC(CC)NC(=O)c1cc(OC)c(OC)c(OC)c1,"inconclusive: 18.5 µM [inhibitor, single point]"
17,CCOc1ccc(NC(=O)c2cc3c(=O)n(C)c4ccccc4c3n2C)cc1,"inconclusive: 18.5 µM [inhibitor, single point]"
18,CCCOc1ccccc1C(=O)N(Cc1cccc(Br)c1)C1CCS(=O)(=O)C1 (stereo not drawn),"inconclusive: 14.7 µM [inhibitor, partial curve]"
19,CN(C)C=NC1=NN(c2cccc(C(F)(F)F)c2)CC1,"inconclusive: 13.1 µM [inhibitor, single point]"
20,Cc1cc2ncn(-c3nnnn3-c3ccccc3)c2cc1C,"inconclusive: 10.4 µM [inhibitor, partial curve, poor fit]"
21,CCOc1ccccc1NC(=O)Cc1c(F)cccc1Cl,"inconclusive: 2.94 µM [inhibitor, full curve]"
22,Cc1ccc(S(=O)(=O)Nc2cccc(C(=O)N3CCOCC3)c2)c(C)c1NS(C)(=O)=O,"inconclusive: 6.57 µM [inhibitor, partial curve]"
23,CCOc1ccc(C(=O)CCCC(=O)c2ccc(OCC)cc2)cc1,"inconclusive: 18.5 µM [inhibitor, single point]"
24,CCOC(=O)c1ccc(NC(=O)CNS(=O)(=O)c2ccccc2)cc1,"inconclusive: 4.65 µM [inhibitor, partial curve]"
25,COc1cccc(NC(=O)CN(C)C(=O)CC2Sc3ccccc3NC2=O)c1 (stereo not drawn),"inconclusive: 18.5 µM [inhibitor, single point]"

row,SMILES,Potency
1,COC(=O)C1=C(c2cccc(OCc3ccccc3)c2)C[C@@H]2CC[C@H]1N2C(=O)NNCc1ccccc1,active: 10.4 µM
2,CCCNCc1cc(OC)c(OCc2ccccc2)cc1Br,inactive
3,CNS(=O)(=O)c1ccc(N=Cc2c(C)[nH]n(-c3ccc(C)cc3C)c2=O)cc1,"inconclusive: 18.5 µM [inhibitor, single point]"
4,N=c1c2c3c(sc2nc2n1CCCCC2)CCCC3,"inconclusive: 18.5 µM [inhibitor, single point]"
5,CCOC(=O)C(NC(=O)CC)(Nc1cc(C)on1)C(F)(F)F (stereo not drawn),"inconclusive: 18.5 µM [inhibitor, single point]"
6,COc1ccc(C(=O)Nc2ccc(N3CCCCCC3)cc2)cc1S(=O)(=O)N1CCOCC1,"inconclusive: 9.28 µM [inhibitor, partial curve]"
7,S=C(Nc1ccc(Cl)cc1Cl)NC1CCN(Cc2ccccc2)CC1,"inconclusive: 11.7 µM [inhibitor, single point]"
8,O=C1CN(C(=O)COc2c(Cl)cccc2Cl)c2ccccc2N1,"inconclusive: 14.7 µM [inhibitor, single point]"
9,Cn1cnc([N+](=O)[O-])c1Sc1ccc(C(C)(C)C)cc1,"inconclusive: 18.5 µM [inhibitor, single point]"
10,Oc1ccc2nc(Cc3ccccc3)[nH]c2c1,"inconclusive: 14.7 µM [inhibitor, single point]"
11,COc1cccc(C(=O)NC(Cc2ccccc2)c2ccc3c(c2)OCCCO3)c1 (stereo not drawn),active: 3.29 µM
12,Cc1cc(/C=N/NC(=O)c2cccs2)c(C)n1-c1ccccc1,inactive
13,CC(=O)Nc1ccccc1N(C)S(=O)(=O)c1ccc(C)cc1,inactive
14,CCOC(=O)CC1(NC(=O)C2CCC(=O)N(CCc3ccc(OC)cc3)C2)CCCCC1 (stereo not drawn),"inconclusive: 18.5 µM [inhibitor, single point]"
15,CC1CC(=O)N(c2ccc(NCCc3ccccc3)c([N+](=O)[O-])c2)C1=O (stereo not drawn),inactive
16,Cn1c(-c2ccc3ccccc3n2)nc2cnccc21,inactive
17,CCNC(=O)/C(=C/c1ccco1)NC(=O)/C=C/c1ccccc1,inactive
18,CCc1cccc(NS(=O)(=O)c2cccc3cccnc23)c1,"inconclusive: 14.7 µM [inhibitor, single point]"
19,COc1ccc(NC(=O)c2cc3c([nH]c4ccccc43)c(C)n2)cc1,active: 9.28 µM
20,COc1ccccc1-c1cc(C(=O)N2CCN(c3ccc(F)cc3)CC2)no1,active: 8.28 µM
21,COc1cc2c(cc1OC)CN(C(=O)C(CCSC)NS(=O)(=O)c1ccc(C)cc1)CC2 (stereo not drawn),"inconclusive: 13.1 µM [inhibitor, partial curve, poor fit]"
22,Cc1cc2c(C)nc(N/N=C/c3ccccc3)nc2o1,"inconclusive: 1.85 µM [inhibitor, full curve, poor fit]"
23,Cc1ccc(CNC(=O)CNC(=S)N(Cc2ccccc2)Cc2ccccc2F)cc1,"inconclusive: 16.5 µM [inhibitor, partial curve, poor fit]"
24,COc1cc(C2=NOC(C(=O)Nc3cc(C)on3)C2)cc(OC)c1OC (stereo not drawn),inactive
25,CCCN1CCN(C(=O)Nc2ccc(C(=O)OCC)cc2)CC1,inactive

# Looked up one by one from above (four):
row,SMILES,Potency
10,Oc1ccc2nc(Cc3ccccc3)[nH]c2c1,"inconclusive: 14.7 µM [inhibitor, single point]"
5,Cc1ccc(C)c(NCCC#N)c1,inactive
5,CCOC(=O)C(NC(=O)CC)(Nc1cc(C)on1)C(F)(F)F (stereo not drawn),"inconclusive: 18.5 µM [inhibitor, single point]"
15,CC1CC(=O)N(c2ccc(NCCc3ccccc3)c([N+](=O)[O-])c2)C1=O (stereo not drawn),inactive

# Next part:

row,SMILES,Potency
1,Cc1ccc(S(=O)(=O)NCC(c2ccco2)N2CCc3ccccc32)cc1 (stereo not drawn),"inconclusive: 4.65 µM [inhibitor, partial curve]"
2,COc1ccc(NC(=O)c2ccco2)cc1NC(=O)c1ccc(C#N)cc1F,"inconclusive: 18.5 µM [inhibitor, single point]"
3,COc1ccccc1C(=O)N1CCN(Cc2cccnc2)CC1,inactive
4,COc1ccc(C(=O)Nc2ccc(OC)c([N+](=O)[O-])c2)cc1Br,"inconclusive: 18.5 µM [inhibitor, single point]"
5,S=c1nc(NCc2ccc3c(c2)OCO3)c2ccccc2[nH]1,"inconclusive: 0.828 µM [inhibitor, full curve]"
6,CCCCCn1ccc(=O)c2c(C(F)(F)F)nccc21,"inconclusive: 18.5 µM [inhibitor, single point]"
7,Nc1ccccc1Oc1ccc2ccccc2c1,"inconclusive: 4.15 µM [inhibitor, single point]"
8,Cc1ccc(OCCCC(=O)Nc2nncs2)cc1,"inconclusive: 18.5 µM [inhibitor, single point]"
9,O=S(=O)(CCc1nc2ccccc2o1)c1ccc(Cl)cc1,"inconclusive: 11.7 µM [inhibitor, single point]"
10,O=C(Nc1ccc(F)cc1)c1nc2c(nnn2Cc2cccc3ccccc23)c(=O)[nH]1,inactive
11,COc1cccc2c(=O)n(CC(=O)Nc3cccc(F)c3)ccc12,"inconclusive: 9.28 µM [inhibitor, single point]"
12,CSc1ccccc1C(=O)N1CCN(c2ccc(F)cc2)CC1,inactive
13,Cc1cc(Br)cnc1NC(=S)Nc1ccc(F)cc1F,"inconclusive: 18.5 µM [inhibitor, partial curve, poor fit]"
14,COCCCn1c(=NC(=O)c2ccccc2)c(C#N)cc2c(=O)n3cccc(C)c3nc21,"inconclusive: 1.85 µM [inhibitor, full curve]"
15,CCN(CC(=O)Nc1ccc(NC(C)=O)cc1)C(=O)CCCc1nc2ccccc2s1,"inconclusive: 9.28 µM [inhibitor, single point]"
16,Cc1nc2ccc(C(=O)N3CCN(Cc4ccccc4)CC3)cc2[nH]1,inactive
17,COc1ccc(-c2cn(Cc3cccc(OC)c3)nn2)cc1,inactive
18,C=CCOc1nc2sc(C)c(C)c2c(=O)n1-c1ccccc1,active: 8.28 µM
19,COc1ccc(CNC(=O)C2CC(O)CN2C(=O)Nc2ccccc2)cc1 (stereo not drawn),inactive
20,COc1ccc(OC(=O)c2cc3ccccc3o2)cc1,"inconclusive: 10.4 µM [inhibitor, single point]"
21,NC(=O)CSc1nc(-c2ccccc2)c(-c2ccccc2)o1,"inconclusive: 9.28 µM [inhibitor, partial curve]"
22,Nc1c(N2CCOCC2)cc(Cl)c2nonc12,inactive
23,CCN(c1ccccc1)S(=O)(=O)c1ccc(Cl)c(C(=O)N(CC2CCCO2)C2CCS(=O)(=O)C2)c1 (stereo not drawn),"inconclusive: 2.62 µM [inhibitor, single point]"
